Values are the deposited “Percent Effect”, in %.
The controls that fix the scale are not given in the record; negative values are as filed.
Compounds were drawn at random from those tested, without regard to their results.

Sequences of proteins named here, by UniProt entry; tags and fusion partners are left off. Residues count along the entry.
UniProt Q4DA54, 1-478: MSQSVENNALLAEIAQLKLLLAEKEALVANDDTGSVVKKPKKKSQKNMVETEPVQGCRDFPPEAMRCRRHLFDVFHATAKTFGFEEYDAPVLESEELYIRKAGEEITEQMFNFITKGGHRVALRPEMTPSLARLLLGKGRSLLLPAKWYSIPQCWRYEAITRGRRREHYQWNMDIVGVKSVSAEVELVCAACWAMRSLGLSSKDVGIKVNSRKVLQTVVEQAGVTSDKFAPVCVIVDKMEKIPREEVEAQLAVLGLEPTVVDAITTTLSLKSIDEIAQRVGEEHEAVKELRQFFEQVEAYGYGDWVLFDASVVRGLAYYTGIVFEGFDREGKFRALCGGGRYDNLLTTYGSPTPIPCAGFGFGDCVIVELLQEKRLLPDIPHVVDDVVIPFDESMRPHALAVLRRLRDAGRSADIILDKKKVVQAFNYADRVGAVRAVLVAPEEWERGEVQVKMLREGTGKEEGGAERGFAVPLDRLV
UniProt P9WNZ1, whole entry: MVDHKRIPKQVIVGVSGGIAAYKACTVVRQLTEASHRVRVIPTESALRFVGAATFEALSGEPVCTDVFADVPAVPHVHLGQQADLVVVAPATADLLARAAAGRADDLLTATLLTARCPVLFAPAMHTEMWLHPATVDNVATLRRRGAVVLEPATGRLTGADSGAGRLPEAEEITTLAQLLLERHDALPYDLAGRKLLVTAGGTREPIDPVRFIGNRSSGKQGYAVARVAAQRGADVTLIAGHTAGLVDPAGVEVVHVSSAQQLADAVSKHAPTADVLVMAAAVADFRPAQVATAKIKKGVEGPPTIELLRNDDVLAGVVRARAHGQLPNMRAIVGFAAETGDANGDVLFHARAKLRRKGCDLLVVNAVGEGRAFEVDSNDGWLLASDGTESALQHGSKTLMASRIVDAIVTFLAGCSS
UniProt A4I591, 1-473: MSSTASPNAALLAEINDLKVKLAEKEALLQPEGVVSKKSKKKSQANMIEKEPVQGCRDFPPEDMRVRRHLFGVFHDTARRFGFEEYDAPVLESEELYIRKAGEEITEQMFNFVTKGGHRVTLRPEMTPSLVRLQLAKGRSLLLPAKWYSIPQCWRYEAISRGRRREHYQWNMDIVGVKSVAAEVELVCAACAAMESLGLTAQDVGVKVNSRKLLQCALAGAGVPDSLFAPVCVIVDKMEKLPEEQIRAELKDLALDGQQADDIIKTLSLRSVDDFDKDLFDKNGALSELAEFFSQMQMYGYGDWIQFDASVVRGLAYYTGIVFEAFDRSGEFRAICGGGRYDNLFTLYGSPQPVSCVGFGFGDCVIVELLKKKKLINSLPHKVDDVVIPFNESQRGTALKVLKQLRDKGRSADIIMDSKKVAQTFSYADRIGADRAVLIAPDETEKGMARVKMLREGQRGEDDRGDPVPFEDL

TcHisRS: 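Enzyme assay of histidyl-tRNA synthetase; the read-out is not stated. Target: Histidine-tRNA ligase, Trypanosoma cruzi CL Brener (UniProt Q4DA54). Compounds at 30 µM. The record gives no direction; compounds that gave an IC50 in retests scored well above the rest, so higher reads as stronger inhibition. About 69,000 compounds were tested under these conditions; 0.045% (about 31) showed 50% or more at least once.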
Leishmania in macrophages: 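Cell assay of Leishmania donovani living inside macrophages; the read-out is not stated. Tested at 30 µM. The record gives no direction; compounds that gave an IC50 in retests scored well above the rest, so higher reads as stronger inhibition. About 69,000 compounds were tested under these conditions; 1.5% (about 1,000) showed 50% or more at least once.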
Toxoplasma: 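Assay of Toxoplasma gondii numbers, read through their beta-galactosidase reporter with a colour substrate. Tested at 10 µM. Higher reads as fewer parasites (inferred from which compounds were picked for retests). Of about 67,000 compounds tested this way, about 260 (0.38%) reached 50% or more in at least one test.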
CoaBC: 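Enzyme assay of CoaBC with a phosphate dye (Biomol Green) read at 650 nm. Target: Coenzyme A biosynthesis protein CoaBC, Mycobacterium tuberculosis (UniProt P9WNZ1). Tested at 30 µM. Direction is inferred from only a few compounds that gave an IC50; most scored high, so higher reads as stronger inhibition. Most strong results did not repeat in a second test. About 67,000 compounds were tested under these conditions; 0.06% (about 40) showed 50% or more at least once.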
LiHisRS: 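Enzyme assay of histidyl-tRNA synthetase; the read-out is not stated. Target: Histidine-tRNA ligase, Leishmania infantum (UniProt A4I591). Tested at 30 µM. The record gives no direction; compounds that gave an IC50 in retests scored well above the rest, so higher reads as stronger inhibition. The assay is labelled LdHisRS but filed under L. infantum. About 69,000 compounds were tested under these conditions; 0.6% (about 410) showed 50% or more at least once.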

For [H][C@@]12CN(Cc3cccc(-c4ccccc4C)c3)C[C@]1(C(=O)O)CNC2=O the result was Leishmania in macrophages: -21.01%; Toxoplasma: -6.871%.
For Cc1ccc(C(=O)N(C)CC(=O)Nc2cccc(C)n2)cn1 the result was TcHisRS: 5.556%; Leishmania in macrophages: 5.884%; Toxoplasma: 1.268%; CoaBC: -1.261%; LiHisRS: 14.53%.
For CN1C(=O)CC(c2ccccc2)C12CCN(CC1CCOCC1)CC2 (stereo not shown) the result was TcHisRS: 6.796%; CoaBC: 2.703%; LiHisRS: 5.769%.
For CC(C)N1CC(C(=O)NC(C)(C)CNC(=O)OC(C)(C)C)CC1=O (stereo not shown) the result was TcHisRS: 1.163%; Leishmania in macrophages: 11.09%; Toxoplasma: -1.449%; CoaBC: 3.433%; LiHisRS: 14.75%.
For CC(C)c1cc(N2CCC3(CCN(C)C3)C2)ncn1 (stereo not shown) the result was TcHisRS: 7.143%; Leishmania in macrophages: 21.46%; Toxoplasma: -6.511%; CoaBC: -2.088%; LiHisRS: 7.752%.
For CCCc1noc(CN2CCCC2c2ccsc2)n1 (stereo not shown) the result was TcHisRS: -1.504%; Leishmania in macrophages: 16.77%; CoaBC: -4.37%; LiHisRS: 7.865%.
For O=C(c1cc2ccccc2[nH]1)N1CCC(Nc2cccnn2)CC1 the result was TcHisRS: 3.198%; Leishmania in macrophages: 25.12%; Toxoplasma: 6.848%; CoaBC: 3.143%; LiHisRS: 4.386%.
For O=C(CCn1cc(Cl)cn1)N1C[C@@H]2CC[C@H](C1)N(Cc1ccccn1)C2 the result was TcHisRS: -12.5%; CoaBC: 0.8872%; LiHisRS: 18.99%.
For [H][C@@]12CCN(Cc3ccncc3)C[C@]1([H])[C@@H](CNc1ncccn1)OC2 the result was Leishmania in macrophages: -2.137%; Toxoplasma: 2.433%.
For COC1CCCN(C(=O)NCCCF)C1 (stereo not shown) the result was TcHisRS: 5.202%; Leishmania in macrophages: -17.59%; Toxoplasma: -0.6676%; CoaBC: 1.737%; LiHisRS: 6.383%.
For c1ccc(COC[C@H]2CC[C@H]3[C@H](CCN3Cc3cccnc3)O2)nc1 the result was TcHisRS: 4.082%; CoaBC: 4.326%; LiHisRS: 9%.
For O=C(O)C(F)(F)F.O=C(O)C(F)(F)F.[H][C@@]12CC(=O)N(Cc3cccc(C)n3)[C@@]1([H])CCN2Cc1ccc(CC)o1 the result was Leishmania in macrophages: 10.18%; Toxoplasma: -11.41%.
For Cc1cccc(CN2C(=O)C[C@H]3[C@@H]2CCN3Cc2cccs2)n1 the result was TcHisRS: -1.97%; CoaBC: 0%; LiHisRS: 23.53%.
For Cc1cc2nc(O)c(O)nc2cc1S(=O)(=O)NC1CC1 the result was TcHisRS: 1.242%; Leishmania in macrophages: 53.32%; Toxoplasma: 10.16%; CoaBC: -1.139%; LiHisRS: 22.5%.
For CNC(=O)[C@@H]1C[C@H]2CN(Cc3ccc(C)s3)C[C@H]2N1C(C)=O the result was TcHisRS: 12.02%; CoaBC: 17.41%; LiHisRS: 21.1%.
For CCC1CN(CC(=O)N2CCN(C(C)=O)CC2)CCN1CCOC (stereo not shown) the result was TcHisRS: 7.736%; Leishmania in macrophages: 8.079%; Toxoplasma: -20.5%; CoaBC: 7.826%; LiHisRS: 14.04%.

Once more, the final 2:

{"structure": "CNC(=O)[C@@H]1C[C@H]2CN(Cc3ccc(C)s3)C[C@H]2N1C(C)=O", "TcHisRS": 12.02, "CoaBC": 17.41, "LiHisRS": 21.1}
{"structure": "CCC1CN(CC(=O)N2CCN(C(C)=O)CC2)CCN1CCOC", "stereo": "stereo not shown", "TcHisRS": 7.736, "Leishmania in macrophages": 8.079, "Toxoplasma": -20.5, "CoaBC": 7.826, "LiHisRS": 14.04}

The values are deposited in ChEMBL (CHEMBL3988442, “University of Dundee, Small-Polar-MMV Screening Library” (2021)).